Experimental data from patent publication US20130280279A1, “PHARMACEUTICAL COMPOSITION OF A COMPLEX OF AN ANTI-DIG ANTIBODY AND DIGOXIGENIN THAT IS CONJUGATED TO A PEPTIDE” (HOFFMANN-LA ROCHE INC., priority 2011, published 2013).
Results are given in words; binding and its absence hold for the method and conditions named. A result given as binding can be weak or reduced; the word gives no strength.

Target: mono-digoxigenated protein DIG-myoglobin
Experiment: SPR, binding to mono-digoxigenated DIG-myoglobin

Row | binding | Binder
1 | binds | murine <Dig> IgG1 kappa from mouse hybridoma clone 19-11 (antibody, V domains shown) VH: EVQLVESGGGLVKPGGSLKLSCAVSGFTFSDYAMSWIRQTPENRLEWVASINIGATYAYYPDSVKGRFTISRDNAKNTLFLQMSSLGSEDTAMYYCARPGSPYEYDKAYYSMAYWGPGTSVTVSS VL: DVQMTQSTSSLSASLGDRVTISCRASQDIKNYLNWYQQKPGGTVKLLIYYSSTLLSGVPSRFSGRGSGTDFSLTITNLEREDIATYFCQQSITLPPTFGGGTKLEIK
2 | binds | humanized <Dig> IgG (antibody, V domains shown) VH: QVQLVESGGGLVKPGGSLRLSCAASGFTFSDYAMSWIRQAPGKGLEWVSSINIGATYIYYADSVKGRFTISRDNAKNSLYLQMNSLRAEDTAVYYCARPGSPYEYDKAYYSMAYWGQGTTVTVSS VL: DIQMTQSPSSLSASVGDRVTITCRASQDIKNYLNWYQQKPGKAPKLLIYYSSTLLSGVPSRFSGSGSGTDFTLTISSLQPEDFATYYCQQSITLPPTFGGGTKVEIKR
